Test results published in doi:10.64898/2025.12.11.693822.
These are yes or no findings as the source states them, for the method shown. Binding seen in cells or lysates may run through a third protein. A result given as binding can be weak or reduced; the word gives no strength.

Biological target: T1, IFT20 (Chlamydomonas reinhardtii (endogenous in Chlamydomonas cells)) (UniProt Q8LLV9)
T1 sequence: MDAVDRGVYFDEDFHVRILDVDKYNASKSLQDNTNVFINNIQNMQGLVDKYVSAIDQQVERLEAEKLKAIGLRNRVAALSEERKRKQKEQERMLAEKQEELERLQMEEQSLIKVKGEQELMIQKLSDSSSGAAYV
Test: co-IP

Chlamyopsin6
binding: binds
